The list is a part of this screen's results and no random one: it is rich in T/C values a quarter to a half above the control, in often repeated tests (any T/C) and in doses without a T/C. Other doses and runs of a compound stand elsewhere. T/C gives the treated animals as a percentage of the vehicle group. Some entries give survivors of the animals treated and no T/C: the source files T/C as zero there, which appears to mark a toxic dose or a test without result, not a measured value. Some doses without a T/C left all or most animals alive at the check, yet need not have been tolerated: survival well below the control is almost never listed, so the zero probably covers shortened survival too. Survivors were counted at the toxicity check, usually on the fifth day, unless a day is given; later deaths do not show. Schedules are NCI's codes, taken here to give the interval after Q, in days (D) or hours (H), and the number of doses after X. Some schedule codes hold Z or #, which are not explained here. Where survival is the endpoint, this PubChem deposit counts one and a half times the control or more as active, and values a quarter to a half above the control carry no call in these data; other NCI protocols may use other cut-offs. Some T/C values carry the count of animals alive at the toxicity check (mostly the fifth day); without a count, all were alive then.

From PubChem BioAssay AID248 (DTP/NCI, 2004) come the findings set out here.

The subject of this experiment is L1210 leukemia ip in BDF1 mice, survival T/C. In words: NCI In Vivo Anticancer Drug Screen. Data for tumor model L1210 Leukemia (intraperitoneal) in B6D2F1 (BDF1) mice. Particulars: T/C endpoint: mean survival time, higher T/C = longer survival.
Where [1] appears, read: dose: 400.0 mg/kg/injection, schedule: Q01DX009 (ip), vehicle: Klucel (hydroxypropylcellulose) (HPC).
[2] abbreviates: dose: 400.0 mg/kg/injection, schedule: Q04DX003 (ip), vehicle: Klucel (hydroxypropylcellulose) (HPC).
[3] abbreviates: dose: 400.0 mg/kg/injection, schedule: Q01DX001 (ip), vehicle: saline.
[4] abbreviates: dose: 200.0 mg/kg/injection, schedule: Q01DX009 (ip), vehicle: saline with Tween-80.
Setting [5] is: dose: 400.0 mg/kg/injection, schedule: Q01DX009 (ip), vehicle: saline with Tween-80.
[6] abbreviates: dose: 100.0 mg/kg/injection, schedule: Q01DX009 (ip), vehicle: Klucel (hydroxypropylcellulose) (HPC).

Consider `CCCCCCC12CCC(=O)C1(CCCCCCC(=O)O)O2` (stereo unspecified), for which the survivor count by setting is: (dose: 50.0 mg/kg/injection, schedule: Q04DX002 (ip), vehicle: Klucel (hydroxypropylcellulose) (HPC)) 1 of 3; (dose: 100.0 mg/kg/injection, schedule: Q04DX002 (ip), vehicle: Klucel (hydroxypropylcellulose) (HPC)) 1 of 3; (dose: 200.0 mg/kg/injection, schedule: Q04DX002 (ip), vehicle: Klucel (hydroxypropylcellulose) (HPC)) 1 of 3.

As to `C#CCC1(OC(N)=O)CCCCC1`, the survivor count under setting [1] was 3 of 6.

Consider `Cc1ccc(-c2cc3ccccc3[nH]2)cc1`, for which, under setting [2], the survivor count was 3 of 6.

On to `N=C([Se])c1cn(C2OC(CO)C(O)C2O)c2ncnc(N)c12` (stereo unspecified), for which the survivor count by setting is: (dose: 1.56 mg/kg/injection, schedule: Q01DX005 (ip), vehicle: saline) 6 of 6; (dose: 3.12 mg/kg/injection, schedule: Q01DX005 (ip), vehicle: saline) 2 of 6; (dose: 6.25 mg/kg/injection, schedule: Q01DX005 (ip), vehicle: saline) 2 of 6; (dose: 12.5 mg/kg/injection, schedule: Q01DX005 (ip), vehicle: saline) 0 of 6; (dose: 25.0 mg/kg/injection, schedule: Q01DX005 (ip), vehicle: saline) 0 of 6; (dose: 50.0 mg/kg/injection, schedule: Q01DX005 (ip), vehicle: saline) 0 of 6. In addition, the survivor count (dose: 100.0 mg/kg/injection, schedule: Q01DX005 (ip), vehicle: saline) is on record as 0 of 6 and the survivor count (dose: 200.0 mg/kg/injection, schedule: Q01DX005 (ip), vehicle: saline) is on record as 0 of 6.

With `Cc1cccc(OCCOc2cccc(C)c2)c1`, under setting [3], the survivor count is given as 6 of 6.

For `COC1/C=C/OC2(C)Oc3c(C)c(O)c4c(O)c(c(/C=N/N5C(C)CN(Cc6ccc(C)cc6)CC5C)c(O)c4c3C2=O)NC(=O)C(C)=C/C=C/C(C)C(O)C(C)C(O)C(C)C(OC(C)=O)C1C` (stereo unspecified), the survivor count under setting [4] is given as 6 of 6 and the survivor count under setting [5] is on record as 2 of 6.

`CCC(=O)OC1(c2ccccc2)CCN(CCC(O)c2ccccc2)CC1` (stereo unspecified): the survivor count was 3 of 6 (dose: 50.0 mg/kg/injection, schedule: Q01DX009 (ip), vehicle: Klucel (hydroxypropylcellulose) (HPC)) and 1 of 6 under setting [6].

On to `CC(C)NCCCN`, for which the survivor count (dose: 200.0 mg/kg/injection, schedule: Q04DX002 (ip), vehicle: saline with Tween-80) is 3 of 3; the survivor count under setting [3] is 0 of 4; the survivor count (dose: 400.0 mg/kg/injection, schedule: Q04DX002 (ip), vehicle: saline with Tween-80) is listed as 0 of 3.

For the compound `CC(=O)OC1CC(C)(C)CC(OC(C)=O)C1(C)C` (stereo unspecified), the survivor count (dose: 300.0 mg/kg/injection, schedule: Q01DX001 (ip), vehicle: saline) is on record as 0 of 6.

With `Cc1cc(C)c(O)c(C)c1C`, under setting [4], the T/C is 125 % of control.

For the compound `COc1cc([C@@H]2c3cc4c(cc3[C@H](SC(=N)N)[C@H]3COC(=O)[C@H]23)OCO4)cc(OC)c1OC`, the survivor count is reported as 0 of 6 (dose: 27.0 mg/kg/injection, schedule: Q01DX Z (ip), vehicle: methylcellulose (MC)); 2 of 6 (dose: 40.0 mg/kg/injection, schedule: Q01DX Z (ip), vehicle: carboxymethylcellulose (CMC)); 3 of 6 (dose: 40.0 mg/kg/injection, schedule: Q01DX Z (ip), vehicle: methylcellulose (MC)); 1 of 6 (dose: 60.0 mg/kg/injection, schedule: Q01DX Z (ip), vehicle: carboxymethylcellulose (CMC)); 1 of 6 (dose: 75.0 mg/kg/injection, schedule: Q01DX Z (ip), vehicle: saline); 1 of 6 (dose: 80.0 mg/kg/injection, schedule: Q01DX Z (ip), vehicle: carboxymethylcellulose (CMC)). Moreover, the survivor count runs as follows: (dose: 100.0 mg/kg/injection, schedule: Q01DX009 (ip), vehicle: saline) 0 of 6; (dose: 125.0 mg/kg/injection, schedule: Q01DX Z (ip), vehicle: carboxymethylcellulose (CMC)) 0 of 6; (dose: 300.0 mg/kg/injection, schedule: Q01DX Z (ip), vehicle: saline) 0 of 6; (dose: 300.0 mg/kg/injection, schedule: Q04DX003 (ip), vehicle: saline) 1 of 6.

In the case of `CCN(CC)CCCC(C)Nc1ccc(O)c2c1C(=O)c1ccccc1C2=O` (stereo unspecified), the survivor count (dose: 400.0 mg/kg/injection, schedule: Q04DX002 (ip), vehicle: saline) was 1 of 3.

Regarding `CCSc1nc(N)c(C#N)cc1C#N`, the survivor count was 1 of 6 under setting [1] and 4 of 6 under setting [2].

Turning to `COc1ccc2nc3cc(Cl)ccc3c(NCCC[N+](C)(C)CCCCCCCCCC[N+](C)(C)CCCNc3c4ccc(Cl)cc4nc4ccc(OC)cc34)c2c1`, the survivor count is 0 of 6 (dose: 100.0 mg/kg/injection, schedule: Q01DX009 (ip), vehicle: saline with Tween-80); 0 of 6 under setting [4]; 0 of 6 under setting [5].

On to `CC(=O)CC(=O)NCC(CCN1CCCCC1)(c1cccc2ccccc12)C(C)C` (stereo unspecified), for which the survivor count under setting [6] is 1 of 6.

In the case of `Nc1ccc2nc3ccc(N)cc3[n+](-c3ccccc3)c2c1`, the T/C (dose: 40.0 mg/kg/injection, schedule: Q01DX001 (ip), vehicle: other) was 127 % of control [3 of 4 alive]. In addition, the survivor count by setting is: (dose: 60.0 mg/kg/injection, schedule: Q01DX001 (ip), vehicle: other) 3 of 6; (dose: 80.0 mg/kg/injection, schedule: Q01DX001 (ip), vehicle: other) 0 of 4; (dose: 100.0 mg/kg/injection, schedule: Q01DX001 (ip), vehicle: other) 0 of 4; (dose: 200.0 mg/kg/injection, schedule: Q01DX001 (ip), vehicle: other) 0 of 4; (dose: 400.0 mg/kg/injection, schedule: Q01DX001 (ip), vehicle: other) 0 of 4.
